We go through one sequence from paper PMC5996148.

Some test systems named below: MRPL10 (human); MRPL43 (human); MRPL44 (human); MRPL53 (human); MRS2L (human); MS4A2 (human); MS4A4A (human); MSRA (human); MSRB3 (human).
Holding throughout (experiment): protein microarray (ProtoArray v5.0), streptavidin-Alexa Fluor 647
Common to all, as to conditions: 3'-biotin; 20 mM Tris (pH 7.5), 5 mM MgCl2, 100 mM KCl, 0.1% Tween-20, A/T-rich and random oligonucleotide blockers; temperature not stated; high values mean tight binding

Another assay deals with MRPL19 (UniProt P49406).

“And” between values parts separate entries of the source, which are not always exact repeats. Equal values may be shown once. This is one part of the list. For some of these results: The source does not settle which construct or isoform was used.

For the sequence “GGGAGGCTGAGGCAGG [G4-1 biotinylated (PQS2)]”, the binding signal with MRPL10 (human) was -0.284 z-score; with MRPL19 it was 4.58 z-score; in the assay with MRPL43 (human), -0.316 z-score and -0.312 z-score and -0.337 z-score; with MRPL44 (human) it was -0.256 z-score; in the assay on MRPL53 (human), -0.294 z-score; in the assay on MRS2L (human) it was -0.345 z-score. In addition, the binding signal is -0.265 z-score with MS4A2 (human), -0.281 z-score in the assay with MS4A4A (human), -0.339 z-score in the assay on MSRA (human) and -0.332 z-score in the assay on MSRB3 (human).
